These results are taken from paper PMC7083565, “In vitro metabolism, reaction phenotyping, enzyme kinetics, CYP inhibition and induction potential of ataluren” (Pharmacology Research & Perspectives, 2020).

The test system of one series is UGT1A1. Kind of series: Correlation analysis with marker UGT1A1 activity. The series is classed as in vitro ADME, human. Particulars: vs 3-Glucuronidation of 17β-estradiol (UGT1A1), 16 individual HLM.
In a further series the test system is UGT1A9. Kind of series: Correlation analysis with marker UGT1A9 activity. Type of series: in vitro ADME, human. To be noted: vs Glucuronidation of propofol (UGT1A9), 16 individual HLM.

In the case of `O=C(O)c1cccc(-c2noc(-c3ccccc3F)n2)c1` [ataluren, Ataluren], in the series with UGT1A1, the “Correlation coefficient, Ataluren glucuronide formation” value was determined as 0.430 and the “Correlation coefficient, Loss of ataluren” value came to 0.383. In addition, in the series on UGT1A9, the “Correlation coefficient, Ataluren glucuronide formation” value was determined as 0.677 and the “Correlation coefficient, Loss of ataluren” value was 0.756.
